Reference: publication PMC9918503
Numbering of substitutions follows the chain as printed. No constants are given. Whether binding was seen depends on the method and setting. In cells and extracts the contact can be indirect. Some entries that bind do so weakly or less than the wild type. For some of these results: Where a sequence is shown, tags or fusion partners need not be part of it.

Protein sequences, listed by entry. Tags and fused reporters are not part of them.
UniProt P01106: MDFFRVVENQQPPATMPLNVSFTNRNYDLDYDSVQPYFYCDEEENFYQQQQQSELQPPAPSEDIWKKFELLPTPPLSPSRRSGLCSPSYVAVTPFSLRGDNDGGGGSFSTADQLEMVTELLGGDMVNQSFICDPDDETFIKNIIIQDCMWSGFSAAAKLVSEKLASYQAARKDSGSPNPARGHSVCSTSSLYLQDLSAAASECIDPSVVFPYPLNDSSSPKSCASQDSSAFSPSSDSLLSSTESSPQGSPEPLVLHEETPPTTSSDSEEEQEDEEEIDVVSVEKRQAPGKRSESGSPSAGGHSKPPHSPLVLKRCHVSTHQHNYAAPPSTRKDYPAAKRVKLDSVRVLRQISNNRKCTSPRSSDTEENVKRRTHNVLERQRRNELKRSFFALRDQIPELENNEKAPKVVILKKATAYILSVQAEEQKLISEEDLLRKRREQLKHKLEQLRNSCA
UniProt Q96SB4: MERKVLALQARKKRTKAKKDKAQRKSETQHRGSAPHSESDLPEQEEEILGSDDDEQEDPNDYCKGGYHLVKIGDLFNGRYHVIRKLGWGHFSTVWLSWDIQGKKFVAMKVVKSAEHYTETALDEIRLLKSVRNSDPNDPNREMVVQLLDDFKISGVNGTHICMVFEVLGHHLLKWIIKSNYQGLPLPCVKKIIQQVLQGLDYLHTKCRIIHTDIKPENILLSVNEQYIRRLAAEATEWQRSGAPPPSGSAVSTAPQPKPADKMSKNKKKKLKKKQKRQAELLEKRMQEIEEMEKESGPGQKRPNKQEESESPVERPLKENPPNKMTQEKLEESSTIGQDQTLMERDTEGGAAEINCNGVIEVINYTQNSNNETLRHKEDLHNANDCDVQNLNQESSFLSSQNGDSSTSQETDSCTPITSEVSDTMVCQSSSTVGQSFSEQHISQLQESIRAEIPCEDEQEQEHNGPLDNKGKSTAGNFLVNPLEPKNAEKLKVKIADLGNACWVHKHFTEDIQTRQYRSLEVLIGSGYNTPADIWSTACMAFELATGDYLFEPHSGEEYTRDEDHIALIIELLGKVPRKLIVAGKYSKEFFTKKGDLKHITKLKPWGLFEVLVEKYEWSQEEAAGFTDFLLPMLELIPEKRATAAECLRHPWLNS

What was measured:
[1] = target: T1, HA-tag-CTDNEP1 (D425 cells) (UniProt O95476); assay: co-IP; D425 cells transduced with control or lentivirus expressing HA-tag-CTDNEP1; 4-h MG132 treatment (Fig. 3l); immunoblots
T1 sequence: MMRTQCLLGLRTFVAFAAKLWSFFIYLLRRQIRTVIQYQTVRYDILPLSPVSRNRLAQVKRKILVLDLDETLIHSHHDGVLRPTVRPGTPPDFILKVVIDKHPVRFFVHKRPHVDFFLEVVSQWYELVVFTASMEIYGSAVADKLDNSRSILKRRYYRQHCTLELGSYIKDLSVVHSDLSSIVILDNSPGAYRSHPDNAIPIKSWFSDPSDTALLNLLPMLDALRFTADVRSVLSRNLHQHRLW

[2] = target: T2, CTDNEP1-D69N (HeLa cells) (UniProt O95476); assay: proximity ligation; PLA in HeLa cells expressing HA-tagged CTDNEP1 or CTDNEP1-D69N; signal at the nuclear periphery
T2 sequence: T1 sequence with D69N

[3] = target: T3, HA-tagged CTDNEP1 (HeLa cells) (UniProt O95476); assay: as above
T3 sequence: T1 sequence

binding [1] | binding [2] | binding [3] | Substance
binds |  |  | MYC (D425 cells) (from UniProt P01106 1-454)
 | binds | binds | MYC (HeLa cells) (from UniProt P01106 1-454)
binds |  |  | SRPK1 (D425 cells) (from UniProt Q96SB4 1-655)
